For some assays here: Not every detail of the peptide structures is certain; ends, links or a residue may be inferred. For some assays here: At least one structure is not confirmed: it was looked up by name or label, or the drawing left a doubt. Residues, ends and D or L forms follow the SMILES beside them.
Columns and labels:
Type in all cases: cell-based
[1] = tested on: STAT, JNK and cJUN phosphorylation in HSC-4 cells; assay: Western blot of HSC-4 cells treated with SSTP1 and inhibitors; conditions: HSC-4, SSTP1 10 μM, SP600125 20 μM
Description: a. Inhibitors for IL6 (LMT-28), JAK (Ruxolitinib), gp130 (SC-144) and JNK (SP600125) as well as Anti-IL6Rα were used to check the dispensability of each of these molecules in inducing apoptosis by SSTP1. […] The SSTP1-mediated up-regulation of pJNK was not appreciably affected by either of these inhibitors, while pcJUN up-regulation was inhibited by only SP600125 (FIGS. 7a and b). […] LMT28 binds to the interface between IL6 and gp130 to block the activity of IL6. Since SSTP1 binds to a different site on the IL6/IL6Rα/gp130 complex, i.e., the interface of IL6 and IL6Rα, there is no competitive inhibition when we add LMT28. b.

[2] = tested on: Caspase 3, 7, 8, 9 and PARP in HSC-4 cells; assay: Western blot for caspase and PARP cleavage; conditions: HSC-4, 10 μM
IL6Rα = molecular target: T1, IL6Rα (Homo sapiens, UniProt P08887); assay: Co-localization of peptide and IL6Rα on cell membrane (Pearson's coefficient); parameters: fixed and probed without permeabilization using mouse IL6Rα; endogenous in cells; host or cells: HSC-4; conditions: HSC-4, 10 μM, 30 minutes
T1 sequence (P08887 20-468): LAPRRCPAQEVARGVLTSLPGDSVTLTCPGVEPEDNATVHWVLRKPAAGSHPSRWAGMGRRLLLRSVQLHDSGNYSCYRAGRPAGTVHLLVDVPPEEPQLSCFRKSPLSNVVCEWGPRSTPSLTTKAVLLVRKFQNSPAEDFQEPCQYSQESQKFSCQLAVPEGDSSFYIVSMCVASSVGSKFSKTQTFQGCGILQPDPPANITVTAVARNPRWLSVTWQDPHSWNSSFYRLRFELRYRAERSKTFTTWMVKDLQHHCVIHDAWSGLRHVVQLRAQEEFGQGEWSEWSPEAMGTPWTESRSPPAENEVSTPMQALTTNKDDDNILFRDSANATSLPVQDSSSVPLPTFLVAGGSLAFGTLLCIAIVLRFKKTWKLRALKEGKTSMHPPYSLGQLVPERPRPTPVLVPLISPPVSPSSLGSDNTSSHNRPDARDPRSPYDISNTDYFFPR
Description: To check whether SSTP1 activates the IL6/IL6R pathway by binding to IL6Rα, we checked the co-localization of SSTP1 and IL6Rα on cell membrane. […] To visualize the IL6R-dependent SSTP1 endosomal up-take, we used an early endosome marker, Rab5C. We observed the co-existence of SSTP1 and IL6Rα within early endosomes, marked by Rab5C (FIGS. 4c and d). […] The physical interaction of SSTP1 and IL6Rα was also ascertained using FRET analysis (FIG. 4f). FIG. 4 illustrates SSTP1 interacts with IL6Rα and mediates the uptake of SSTP1 specifically FIG. 4(a) discusses HSC-4 cells were treated with Biotin labelled SSTP1 or SSTP2 (10 μM) for 30 minutes and then fixed and probed without permeabilization using mouse IL6Rα. 4(b) illustrates the co-localization of SSTP1 or SSTP2 to IL6Rα was analyzed for 11 cells and the Pearson's correlation was plotted. 4(c) illustrates cells were treated as in panel (a) and fixed and permeabilized to probe for IL6Rα, SSTP1 and Rab5c. The arrow mark indicates the co-localization. The scales bars represent 4 μm. 4(d) illustrates the Mander's overlap in SSTP1 foci were quantified for 10 cells. The average values for each cell is plotted. 4(e) illustrates the pull down assay using SSTP1-biotin and probed for IL6Rα. 4(f) illustrates the FRET analysis to show the SSTP1 binding to IL6Rα.

HSC-4 cells = assay: Annexin/PI staining with FACS analysis; conditions: HSC-4, 10 μM
Method: To check whether the cytotoxic effect is due to apoptosis, Annexin/PI staining was performed, with the population with Annexin alone (early apoptotic), Annexin/PI dual stained (late apoptotic) and PI alone (dead cells) were quantified by FACS.

[3] = tested on: JAK/STAT, JNK/AP1, MAPK and AKT phosphorylation in HSC-4 cells; assay: Western blot of JAK/STAT, JNK/AP1, MAPK and PI3K pathway phosphorylation; conditions: HSC-4, 10 μM
Description: a. […] The phosphorylated forms of STAT1 (Y701) and STAT3 (Y705) were probed for western blot to see the JAK/STAT pathway activation. Another phosphorylation of STAT3 at S727, which is reported to be independent of JAK activation, was also probed. […] All these biochemical analyses point out that SSTP1 preferentially down-regulates JAK-mediated-phosphorylation of STATs and MAPK, simultaneously up-regulating phosphorylation of JNK1 and cJUN. b.

| SMILES | SSTP1-mediated pcJUN up-regulation [1] | activation of caspases, result in words [2] | co-localization to IL6Rα on cell surface (IL6Rα) | apoptotic population, result in words (HSC-4 cells) | STAT1 (Y701) phosphorylation [3] | STAT3 (Y705) phosphorylation [3] | pJNK2 levels [3] | pSTAT3(S727) [3] |
| --- | --- | --- | --- | --- | --- | --- | --- | --- |
| Oc1c2ccccc2c2c3c(cccc13)N=N2 [SP600125] | inhibited | – | – | – | – | – | – | – |
| CC[C@H](C)[C@H](NC(=O)[C@H](CCCNC(=N)N)NC(=O)[C@H](CCCNC(=N)N)NC(=O)[C@@H]1CCCN1C(=O)[C@H](CC(C)C)NC(=O)[C@@H](N)Cc1ccccc1)C(=O)N[C@@H](CO)C(=O)N[C@@H](C)C(=O)N[C@@H](CCCNC(=N)N)C(=O)N[C@H](C(=O)N[C@@H](CO)C(=O)N[C@@H](CC(C)C)C(=O)N[C@@H](Cc1ccccc1)C(=O)N1CCC[C@H]1C(=O)N[C@@H](CCCCN)C(=O)N[C@@H](CCCNC(=N)N)C(=O)NCC(=O)N[C@@H](CCCCN)C(N)=O)[C@@H](C)O [SSTP2, FLPRRISARTSLFPKRGK-NH2, reference compound] (H-FLPRRISARTSLFPKRGK-NH2) | – | nor activation of any Caspases | rare | neither showed an increase in apoptotic population | mild up-regulation | mild down-regulation | up-regulated | slight up-regulation |
